According to article PMC9723619:
Like-named read-outs stand apart in the source and are kept apart here. No constants are given. Whether binding was seen depends on the method and setting. Binding seen in cells or lysates may run through a third protein. These calls come from enrichment with a bait or labelling near it, and not all partners need be listed. For some of these results: Sequences can lack the tags named with a protein.

Amino acid sequences for entries named in this document (tags omitted).
UniProt P41819: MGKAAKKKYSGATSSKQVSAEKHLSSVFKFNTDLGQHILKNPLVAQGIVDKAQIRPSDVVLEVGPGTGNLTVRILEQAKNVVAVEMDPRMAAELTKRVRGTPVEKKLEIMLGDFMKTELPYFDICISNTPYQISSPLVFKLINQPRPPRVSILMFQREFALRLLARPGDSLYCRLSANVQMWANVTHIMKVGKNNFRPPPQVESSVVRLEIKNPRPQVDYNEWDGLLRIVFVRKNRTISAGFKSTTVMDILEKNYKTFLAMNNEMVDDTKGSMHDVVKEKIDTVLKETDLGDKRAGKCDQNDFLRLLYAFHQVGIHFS
UniProt P40160: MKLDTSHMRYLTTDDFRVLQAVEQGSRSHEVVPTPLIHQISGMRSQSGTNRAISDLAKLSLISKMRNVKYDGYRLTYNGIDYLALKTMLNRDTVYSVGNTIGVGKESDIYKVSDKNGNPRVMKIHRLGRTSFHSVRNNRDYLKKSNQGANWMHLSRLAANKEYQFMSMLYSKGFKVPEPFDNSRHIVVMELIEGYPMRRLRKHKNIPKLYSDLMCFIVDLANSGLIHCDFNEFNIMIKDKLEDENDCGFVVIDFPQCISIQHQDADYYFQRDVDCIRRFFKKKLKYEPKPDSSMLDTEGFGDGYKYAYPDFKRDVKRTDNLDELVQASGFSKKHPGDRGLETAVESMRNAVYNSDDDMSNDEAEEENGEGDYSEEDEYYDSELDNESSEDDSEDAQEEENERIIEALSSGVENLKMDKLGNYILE

Legend:
Experiment in all cases: affinity purification with mass spectrometry; split-tag tandem affinity purification from S. cerevisiae lysate: first Slx9 on IgG Sepharose with TEV cleavage, then Dim1 on Flag-agarose; 50 mM Tris-HCl pH 7.5, 150 mM NaCl, 2 mM MgCl2; Coomassie bands identified by MALDI-TOF
[1] = target: T1, Slx9 (S. cerevisiae), first bait of the split-tag purification (S. cerevisiae) (UniProt P53251)
T1 sequence: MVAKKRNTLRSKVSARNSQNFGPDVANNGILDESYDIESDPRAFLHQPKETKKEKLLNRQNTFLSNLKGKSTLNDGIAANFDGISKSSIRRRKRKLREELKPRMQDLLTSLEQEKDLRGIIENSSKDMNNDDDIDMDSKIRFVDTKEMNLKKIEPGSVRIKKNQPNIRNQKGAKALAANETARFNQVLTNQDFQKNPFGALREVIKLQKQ

[2] = target: Dim1 (S. cerevisiae), second bait of the split-tag purification (S. cerevisiae) (UniProt P41819)
[3] = target: T2, Slx9 (S. cerevisiae), first bait of the split-tag purification (S. cerevisiae), P53251; conditions: remark: other sources report otherwise
T2 chain: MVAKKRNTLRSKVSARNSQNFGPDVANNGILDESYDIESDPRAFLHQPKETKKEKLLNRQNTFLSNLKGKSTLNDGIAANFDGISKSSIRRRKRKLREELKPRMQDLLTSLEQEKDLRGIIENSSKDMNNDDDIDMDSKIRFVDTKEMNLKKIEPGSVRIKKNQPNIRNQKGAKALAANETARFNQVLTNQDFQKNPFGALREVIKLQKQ

[4] = target: T1, Slx9 (S. cerevisiae), first bait of the split-tag purification (S. cerevisiae); remark: listed apart in the source
[5] = target: Dim1 (S. cerevisiae), second bait of the split-tag purification (S. cerevisiae) (UniProt P41819); remark: listed apart in the source

## Rio2 (S. cerevisiae) (from UniProt P40160 1-425) (enzyme)
[1]
  binding: binds
[2]
  binding: binds

## Dim1 (S. cerevisiae), second bait of the split-tag purification (from UniProt P41819 1-318) (enzyme)
[1]
  binding: binds

B1: Ltv1 (S. cerevisiae), P34078 1-463 (protein)
chain: MSKKFSSKNSQRYVVVHRPHDDPSFYDTDASAHVLVPVSNPNKTSPEADLRKKDVSSTKPKGRRAHVGEAALYGINFDDSEYDYTQHLKPIGLDPENSIFIASKGNEQKVEKKNIEDLFIEPKYRRDEIEKDDALPVFQRGMAKPEYLLHQQDTTDEIRGFKPDMNPALREVLEALEDEAYVVNDDVVVEDISKKTQLQGDNYGEEEKEDDIFAQLLGSGEAKDEDEFEDEFDEWDIDNVENFEDENYVKEMAQFDNIENLEDLENIDYQADVRRFQKDNSILEKHNSDDEFSNAGLDSVNPSEEEDVLGELPSIQDKSKTGKKKRKSRQKKGAMSDVSGFSMSSSAIARTETMTVLDDQYDQIINGYENYEEELEEDEEQNYQPFDMSAERSDFESMLDDFLDNYELESGGRKLAKKDKEIERLKEAADEVSKGKLSQRRNRERQEKKKLEKVTNTLSSLKF
[3]
  binding: binds

B2: Nob1 (S. cerevisiae) (enzyme, UniProt Q08444 1-459)
chain: MTENQTAHVRALILDATPLITQSYTHYQNYAQSFYTTPTVFQEIKDAQARKNLEIWQSLGTLKLVHPSENSIAKVSTFAKLTGDYSVLSANDLHILALTYELEIKLNNGDWRLRKKPGDALDASKADVGTDGKQKLTEDNKKEEDSESVPKKKNKRRGGKKQKAKREAREAREAENANLELESKAEEHVEEAGSKEQICNDENIKESSDLNEVFEDADDDGDWITPENLTEAIIKDSGEDTTGSLGVEASEEDRHVALNRPENQVALATGDFAVQNVALQMNLNLMNFMSGLKIKRIRNYMLRCHACFKIFPLPKDGKPKHFCASCGGQGTLLRCAVSVDSRTGNVTPHLKSNFQWNNRGNRYSVASPLSKNSQKRYGKKGHVHSKPQENVILREDQKEYEKVIKQEEWTRRHNEKILNNWIGGGSADNYISPFAITGLKQHNVRIGKGRYVNSSKRRS
[4]
  binding: binds
[5]
  binding: binds

B3: Ltv1 (S. cerevisiae) (protein, UniProt P34078 1-463)
chain: MSKKFSSKNSQRYVVVHRPHDDPSFYDTDASAHVLVPVSNPNKTSPEADLRKKDVSSTKPKGRRAHVGEAALYGINFDDSEYDYTQHLKPIGLDPENSIFIASKGNEQKVEKKNIEDLFIEPKYRRDEIEKDDALPVFQRGMAKPEYLLHQQDTTDEIRGFKPDMNPALREVLEALEDEAYVVNDDVVVEDISKKTQLQGDNYGEEEKEDDIFAQLLGSGEAKDEDEFEDEFDEWDIDNVENFEDENYVKEMAQFDNIENLEDLENIDYQADVRRFQKDNSILEKHNSDDEFSNAGLDSVNPSEEEDVLGELPSIQDKSKTGKKKRKSRQKKGAMSDVSGFSMSSSAIARTETMTVLDDQYDQIINGYENYEEELEEDEEQNYQPFDMSAERSDFESMLDDFLDNYELESGGRKLAKKDKEIERLKEAADEVSKGKLSQRRNRERQEKKKLEKVTNTLSSLKF
[5]
  binding: binds
